Assay results from patent USRE35053E, “Amines useful in producing pharmaceutically active CNS compounds” (The Upjohn Company, priority 1992, dated 1995).
Some results were stated once for a whole list of compounds, not compound by compound.

How the values were obtained:
angiogenesis = experiment: fertile egg or chick embryo assay of Folkman (inhibition of angiogenesis / tumor growth); assay type: in vivo; details: chick embryo; 50 μg/10 μl with heparin; avascular zone 4 mm or greater
Experimental: According to this procedure compounds which are considered to be "active" (i.e, antiangiogenic) give an avascular zone of 4 mm or greater in some embryos when tested at 50 μg/10 μl in the presence of 50 μg/10 μ of heparin.

[1] = system: conjugated diene formation in rat brain synaptosomes; experiment: Conjugated diene formation assay (lipid peroxidation); assay type: biochemical; details: 100 μM (or less) of the drug, active = 50% inhibition or more
arachidonic acid = experiment: Arachidonic Acid Antagonism Assay (AAAA); assay type: in vivo, mouse (Charles River male CF-1); details: mice; IV, 15 min before sodium arachidonate; outside 95% confidence interval of control LD50
Experimental: While not necessary to determine arachidonic acid antagonism, the above assay has been modified as follows: Charles River male CF-1 mice weighing […] are treated IV with the test compound dissolved in 1.0% Tween-80 and 0.1% hydrochloric acid in distilled water. 0 2 ml total volume. Fifteen minutes later sodium arachidonate (90% pure) in physiological (normal) […] is injected into the tail vein. The LD50 is measured using the Spearman-Karber method with a log dose interval of 0.05 (N-6). Compounds which elevate the LD50 outside of the 95% confidence interval of the control LD50 are considered to be "active".

| SMILES | inhibition of angiogenesis (angiogenesis) | inhibition of conjugated diene formation [1] | arachidonic acid antagonism (elevation of LD50 of arachidonic acid) (arachidonic acid) |
| --- | --- | --- | --- |
| CCN(CC)c1nc(N2CCN(C)CC2)cc(N2CCN(CC(=O)[C@@]3(O)CC[C@H]4[C@@H]5CCC6=CC(=O)CC[C@]6(C)C5=CC[C@@]43C)CC2)n1.Cl.O [Example 15, 17α-Hydroxy-21-[4-[2-(diethylamino)-6-(4-methyl-1-piperazinyl)-4-pyrimidinyl]-1-piperazinyl]pregna-4,9(11)-diene-3,20-dione hydrochloride hydrate] | demonstrate inhibition of angiogenesis | demonstrate such activity | demonstrate arachidonic acid antagonism |
| CCN(CC)c1nc(N2CCCCC2)cc(N2CCN(CC(=O)[C@@]3(O)CC[C@H]4[C@@H]5CCC6=CC(=O)CC[C@]6(C)C5=CC[C@@]43C)CC2)n1.Cl.O [Example 17, 17α-Hydroxy-21-[4-[2-(diethylamino)-6-(1-piperidinyl)-4-pyrimidinyl]-1-piperazinyl]pregna-4,9(11)-diene-3,20-dione hydrochloride hydrate] | demonstrate inhibition of angiogenesis | demonstrate such activity | demonstrate arachidonic acid antagonism |
